Reference: publication PMC9616960
No constants are given. Whether binding was seen depends on the method and setting. Binding seen in cells or lysates may run through a third protein. These calls come from enrichment with a bait or labelling near it, and not all partners need be listed. For some of these results: No binding means not detected with the bait.

Key:
[1] = biological target: T1, Podocin (mouse (endogenous in mouse glomeruli)) (UniProt Q91X05); experiment: affinity purification with mass spectrometry; two anti-Podocin ABs immobilised on magnetic beads, two hours with CL-47 or CL-91 solubilisates of glomerular membrane fractions of wildtype mice; control: Podocin knockout mice; eluates by nano-LC-MS/MS; specific: tnR >0.25 with both ABs in either of two solubilisation conditions
T1 sequence: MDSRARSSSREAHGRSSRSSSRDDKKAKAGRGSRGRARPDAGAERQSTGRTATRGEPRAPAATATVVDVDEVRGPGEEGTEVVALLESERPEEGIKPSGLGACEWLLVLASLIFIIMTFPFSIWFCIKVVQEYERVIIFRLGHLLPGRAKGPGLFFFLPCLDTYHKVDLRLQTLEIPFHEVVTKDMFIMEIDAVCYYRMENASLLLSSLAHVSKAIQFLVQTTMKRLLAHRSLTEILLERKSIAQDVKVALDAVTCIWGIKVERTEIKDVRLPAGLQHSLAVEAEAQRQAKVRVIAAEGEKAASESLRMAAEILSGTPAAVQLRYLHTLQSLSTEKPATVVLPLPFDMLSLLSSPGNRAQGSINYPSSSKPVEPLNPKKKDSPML

[2] = biological target: T2, Nephrin (not stated (endogenous in glomeruli of rat or mouse)), Q9R044; experiment: affinity purification with mass spectrometry; three anti-Nephrin/Neph1 ABs immobilised on magnetic beads, two hours with CL-47 or CL-91 solubilisates of glomerular membrane fractions; eluates by nano-LC-MS/MS; specific: tnR >=0.2 against three target-unrelated ABs/IgG, in at least two anti-Nephrin/Neph1 APs; settings: remark: other sources report otherwise
T2 chain: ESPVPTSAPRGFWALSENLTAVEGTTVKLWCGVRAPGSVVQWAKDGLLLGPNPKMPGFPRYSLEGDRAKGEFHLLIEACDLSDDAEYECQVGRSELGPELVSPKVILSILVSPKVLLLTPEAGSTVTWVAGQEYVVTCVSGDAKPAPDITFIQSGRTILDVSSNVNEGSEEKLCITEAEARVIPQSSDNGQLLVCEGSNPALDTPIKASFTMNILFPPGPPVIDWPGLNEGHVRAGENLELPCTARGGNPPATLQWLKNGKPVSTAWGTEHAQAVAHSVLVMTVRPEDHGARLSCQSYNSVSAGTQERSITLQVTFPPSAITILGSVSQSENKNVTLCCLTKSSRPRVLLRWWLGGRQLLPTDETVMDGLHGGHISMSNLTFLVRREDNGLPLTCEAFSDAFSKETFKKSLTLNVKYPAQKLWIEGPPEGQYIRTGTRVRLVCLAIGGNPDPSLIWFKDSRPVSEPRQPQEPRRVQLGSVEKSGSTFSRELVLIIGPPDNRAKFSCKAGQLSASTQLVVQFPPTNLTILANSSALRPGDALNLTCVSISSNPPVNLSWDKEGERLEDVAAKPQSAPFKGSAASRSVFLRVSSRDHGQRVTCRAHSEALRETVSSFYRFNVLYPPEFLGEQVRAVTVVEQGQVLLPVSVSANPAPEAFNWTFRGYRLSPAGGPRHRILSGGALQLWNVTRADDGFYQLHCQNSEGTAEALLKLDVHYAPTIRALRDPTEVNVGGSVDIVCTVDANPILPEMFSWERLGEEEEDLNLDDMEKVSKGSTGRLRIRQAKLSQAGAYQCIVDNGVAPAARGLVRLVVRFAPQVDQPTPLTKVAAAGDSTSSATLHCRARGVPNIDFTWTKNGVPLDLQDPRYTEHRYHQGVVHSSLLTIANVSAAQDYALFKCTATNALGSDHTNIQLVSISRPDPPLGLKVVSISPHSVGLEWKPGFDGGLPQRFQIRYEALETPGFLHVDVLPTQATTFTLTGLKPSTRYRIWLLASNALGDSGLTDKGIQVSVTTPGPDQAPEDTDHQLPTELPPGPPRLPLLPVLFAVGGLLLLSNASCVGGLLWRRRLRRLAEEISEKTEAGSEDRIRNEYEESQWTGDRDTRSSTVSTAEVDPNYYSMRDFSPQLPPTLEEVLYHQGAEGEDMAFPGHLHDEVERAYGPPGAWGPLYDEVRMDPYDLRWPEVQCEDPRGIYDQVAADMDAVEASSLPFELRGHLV

| Binder | binding [1] | binding [2] |
| --- | --- | --- |
| Glutamyl aminopeptidase (protein, UniProt P16406 1-945) MNFAEEEPSKKYCIKGKHVAIICGVVVAVGLIVGLSVGLTRSCEQDTTPAPSQPPPEASTALPPQDQNVCPDSEDESGEWKNFRLPDFINPVHYDLEVKALMEEDRYTGIVTISVNLSKPTRDLWLHIRETKITKLPELRRPSGEQVPIRRCFEYKKQEYVVIQAAEDLAATSGDSVYRLTMEFKGWLNGSLVGFYKTTYMEDGQIRSIAATDHEPTDARKSFPCFDEPNKKSTYSISIIHPKEYSALSNMPEEKSEMVDDNWKKTTFVKSVPMSTYLVCFAVHRFTAIERKSRSGKPLKVYVQPNQKETAEYAANITQAVFDYFEDYFAMEYALPKLDKIAIPDFGTGAMENWGLVTYRETNLLYDPLLSASSNQQRVASVVAHELVHQWFGNTVTMDWWDDLWLNEGFASFFEFLGVNHAEKDWQMLSQVLLEDVFPVQEDDSLMSSHPVVVTVSTPAEITSVFDGISYSKGASILRMLQDWITPEKFQKGCQIYLKKFQFANAKTSDFWDSLQEASNLPVKEVMDTWTSQMGYPVVTVSGRQNITQKRFLLDSKADPSQPPSELGYTWNIPVRWADNDNSRITVYNRLDKGGITLNANLSGDAFLKINPDHIGFYRVNYEGGTWDWIAEALSSNHTRFSAADRSSFIDDAFALARAQLLNYKIALNLTMYLKSEEDFLPWERVISSVSYIISMFEDDRELYPMIETYFQGQVKPVADLLGWQDTGSHITKLLRASILGFACKMGDREALGNASQLFDSWLKGSASIPVNLRLLVYRYGMQNSGNEAAWNYTLEQYQKTSLAQEKEKLLYGLASVKDVKLLARYLEMLKDPNIIKTQDVFTVIRYISYNSYGKTMAWNWIQLNWDYLVSRFTINDRYLGRIVTIAEPFNTELQLWQMQSFFAKYPNAGAGAKPREQVLETVKNNIEWLNVNRQSIREWFASLP | binds |  |
| Choline transporter-like protein 2 (protein, UniProt Q8BY89 1-706) MGKDSQNYYGKHGTPQKYDPTFKGPIYNRGCTDVICCVLLFLAIVGYVAVGIIAWTHGDPRKVIYPTDSRGEFCGQKGTKNADKPFLFYFNIVKCANPLVLLEFHCPTPQICVKQCPDRYLTLLSARNTRDFDYYKQFCVPGFQNNKGVTEILRDGECPAVITPSKPLAQRCFPAIHASKGVLMVGNETTYEDGHGARKNITDLVEGAKKANKILEARQLAMQIFEDYTVSWYWIIIGLVIAMVLSLLFIVLLRFLAGIMVWVMIVMVILVLGYGIFHCYMEYSRLRGEAGSDVSLVDLGFQTDLRVYLHLRQTWMAFMIILSILEVVIILLLIFLRKRILIAIALIKEASRAVGHVMCSLLYPLVTFFLLCLCIAYWASTSVFLSTSNTAVYKVVDDTACPLLRKTCNPETFPLRNESLQCPTARCQFAFYGGESTYHRALLGLQIFNAFMFFWLANFVLALGQVTLAGAFASYYWAMRKPDDMPAFPLFSAFGRALRYHTGSLAFGSLILAIVQIIRVMLEYLDQRLKAAQNKFAKFLMVCLKCCFWCLEKFIKFLNRNAYIMIAIYGTNFCTSARNAFFLLMRNIIRVAVLDKVTDFLFLLGKLLIVGSVGILAFFFFTHRIRIVQDTAPPLNYYWVPILTVIIGSYLIAHGFFSVYGMCVDTLFLCFLEDLERNDGSAERPYFMSSTLKKLLNKTNKKVAES | binds |  |
| MFSD1 (protein, UniProt Q9DC37 1-464) MEDEDGEDRALLGGRREADSAVHGAPRALSALCDPSRLAHRLVVLSLMCFLGFGSYFCYDNPAALQTQVKRDMQVNTTKFMLLYAWYSWPNVVLCFLGGFLIDRIFGIRWGTVIFSCFVCIGQVIFALGGIFNAFWLMELGRFVFGIGGESLAVAQNTYAVSWFKGKELNLVFGLQLSMARIGSTVNMNLMGWLYGKIEALLGSAGHMTLGVTLMIGCITCIFSLICALALAYLDRRAEKILHKEQGKTGEVIKLRDIKDFSLPLILVFVICVCYYVAVFPFIGLGKVFFMEKFRFSSQSASAINSIVYIISAPMSPLFGLLVDKTGKNIIWVLYAVAATLVSHMMLAFTFWNPWIAMCLLGFSYSLLACALWPMVAFIVPEHQLGTAYGFMQSIQNLGLAVIAILAGMILDSKGYLLLEVFFIACVSLSLLAVVCLYLVNRAQGGNLNYSAKQRERMKLSHPE | binds |  |
| Solute carrier family 13 member 3 (protein, UniProt Q91Y63 1-600) MAALAALAKKVWSARRLLVLLLVPLALLPILFALPPKEGRCLYVILLMAVYWCTEALPLSVTALLPIILFPFMGILPSSKVCPQYFLDTNFLFLSGLIMASAIEEWNLHRRIALKVLMLVGVQPARLILGMMVTTSFLSMWLSNTASTAMMLPIASAILKSLFGQREARKDLPREGDESTAAVQGNGLRTVPTEMQFLASSEGGHTEDAEAPMELPDDSKEEEHRRNIWKGFLISIPYSASIGGTATLTGTAPNLILLGQLKSFFPQCDVVNFGSWFIFAFPLMLLFLLVGWLWISFLYGGMSWRSWRKKKSKIRADAEDQAKAVIQEEFQNLGPIKFAEQAVFILFCTFAILLFSRDPKFIPGWASLFAPGFVSDAVTGVAIVTILFFFPSQKPSLKWWFDFKAPNSETEPLLSWKKAQETVPWNIILLLGGGFAMAKGCEESGLSAWIGGQLHPLEHVPPLLAVLLITVVIAFFTEFASNTATIIIFLPVLAELAIRLHVHPLYLMIPGTVGCSYAFMLPVSTPPNSIAFSTGHLLVKDMVRTGLLMNLMGVLLLSLAMNTWAQTIFQLGTFPDWANTHAANATALPPALTNNTVQTF | binds |  |
| Solute carrier family 22 member 19 (protein, UniProt Q8VCA0 1-551) MAFQDLIIQIGSLGRFQILHMIFVLICHALSAPHTLLENFTAAIPSHRCWVPILDNDTASDNGSRILSQDDLLRISIPLDSNLRPDKCRRYIQPQWHLLHLNGTFPTVTEPDTEPCVDGWVYDQSTFLSTTVTQWDLVCGSQALNSVAKFIYMTGIFIGYIMGGHLSDKFGRKLIFTCSLLKMAITETCVAFAPSFLIYCSLRFLSGIFSSTLRTNSALLILEWTSPKFQALVMALIFIASGVGQTLLGGLAFAFRNWHHLQLALSVPMFLLLIPTRWLSESARWLIMANKPQKSLKELKKAACVNRIKNSGDALTLEVVKTIMKEELEAAQTKPSPLDLFRTPNLRKRICLLSFVRFVSVMSLLGLLINIQYLSNNVFLLQCLYGVVCIPANVLGNFSMNYMGRRMTQLIFMSVLGISILAVVFLPQEMQILRVFLSTLGGAISSASITSTLVHANELVPTIIRATALGVVGIAGSAGGALSPLLMILTTYSASLPWIIYGILPFLGGLVALLLPETKNQPLPDSIQDIENKRKSSKEAKKDVVAKVTPL | binds |  |
| Solute carrier family 5 member 11 (protein, UniProt Q8K0E3 1-673) MESATISPQPPQSDSLEAFPQKSMEPADIAVLVLYFLFVLAVGLWSTVRTKRDTVKGYFLAGGDMVWWPVGASLFASNVGSGHFIGLAGSGAAVGISVAAYELNGLFSVLMLAWVFLPIYIAGQVTTMPEYLRRRFGGNRISITLAVLYLFIYIFTKISVDMYAGAIFIQQSLHLDLYLAIVGLLAITALYTVAGGLAAVIYTDALQTVIMLIGAFILMGYSFAAVGGMEGLKDQYFLALASNRSENSSCGLPREDAFHIFRDPLTSDLPWPGILFGMSIPSLWYWCTDQVIVQRSLAAKNLSHAKGGSLMAAYLKVLPLFLMVFPGMVSRVLFPDQVACAHPDICQRVCSNPSGCSDIAYPKLVLELLPTGLRGLMMAVMVAALMSSLTSIFNSASTIFTMDLWNHIRPRASERELMIVGRIFVFALVLVSILWIPIVQASQGGQLFIYIQSISSYLQPPVAMVFIMGCFWKRTNEKGAFSGLILGLLLGLVRLILDFVYAQPRCDQPDDRPAVVKDVHYLYFSMILSFTTLITVVTVSWFTETPSKEMVSRLTWFTRHEPVAQKDSAPPETPLSLTLSQNGTTEAPGTSIQLETVQESTTKACGDGVSPRHSKVVRAILWLCGMEKNKEEPPSKAEPVIVSLEENPLVKTLLDVNCIVCISCAIFLWGYFA | binds |  |
| Podocin, Q8K4G9 1-383 (protein) MDSRARSSSRKTHGRGSRSSSRDDKKSKAGRGNRGRARPDAGAERQSAGRTGTREEHRAPAATVVNVDEVRSPGEEGTEVVALLESERPEEGIKPSGLGACEWLLVLSSLIFIIVTFPFSIWFCIKVVQEYERVIIFRLGHLLPGRAKGPGLFFFLPCLDTYHKVDLRLQTLEIPFHEVVTKDMFIMEIDAVCYYRMENASLLLSSLAHVSKAIQFLVQTTMKRLLAHRSLTEILLERKSIAQDVKVALDSVTCVWGIKVERTEIKDVRLPAGLQHSLAVEAEAQRQAKVRVIAAEGEKAASESLRMAAEILSGTPAAVQLRYLHTLQSLSTDKPSTVVLPLPFDMLNLLSSPSNRAQGSINYPSSPKPVEPLNPKRKDSPML |  | no binding |
